These are yes or no findings as the source states them, for the method shown. Binding seen in cells or lysates may run through a third protein. These calls come from enrichment with a bait or labelling near it, and not all partners need be listed. No binding means not detected with the bait.

Chains of the proteins cited; added tags and fusions are not shown.
UniProt P35637: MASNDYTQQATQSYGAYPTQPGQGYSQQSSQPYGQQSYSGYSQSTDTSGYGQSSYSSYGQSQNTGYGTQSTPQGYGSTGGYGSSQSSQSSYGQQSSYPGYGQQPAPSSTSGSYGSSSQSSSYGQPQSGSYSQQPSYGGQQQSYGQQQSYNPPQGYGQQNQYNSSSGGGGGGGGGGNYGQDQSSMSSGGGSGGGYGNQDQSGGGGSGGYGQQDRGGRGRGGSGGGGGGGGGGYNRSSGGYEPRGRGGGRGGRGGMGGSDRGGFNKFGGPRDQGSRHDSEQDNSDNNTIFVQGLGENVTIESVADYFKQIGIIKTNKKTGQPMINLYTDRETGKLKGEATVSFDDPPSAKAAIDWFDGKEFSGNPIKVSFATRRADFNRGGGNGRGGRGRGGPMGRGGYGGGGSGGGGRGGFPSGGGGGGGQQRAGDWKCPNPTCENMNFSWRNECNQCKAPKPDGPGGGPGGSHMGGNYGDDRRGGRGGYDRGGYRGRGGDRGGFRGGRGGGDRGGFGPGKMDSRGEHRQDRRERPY
UniProt P24783: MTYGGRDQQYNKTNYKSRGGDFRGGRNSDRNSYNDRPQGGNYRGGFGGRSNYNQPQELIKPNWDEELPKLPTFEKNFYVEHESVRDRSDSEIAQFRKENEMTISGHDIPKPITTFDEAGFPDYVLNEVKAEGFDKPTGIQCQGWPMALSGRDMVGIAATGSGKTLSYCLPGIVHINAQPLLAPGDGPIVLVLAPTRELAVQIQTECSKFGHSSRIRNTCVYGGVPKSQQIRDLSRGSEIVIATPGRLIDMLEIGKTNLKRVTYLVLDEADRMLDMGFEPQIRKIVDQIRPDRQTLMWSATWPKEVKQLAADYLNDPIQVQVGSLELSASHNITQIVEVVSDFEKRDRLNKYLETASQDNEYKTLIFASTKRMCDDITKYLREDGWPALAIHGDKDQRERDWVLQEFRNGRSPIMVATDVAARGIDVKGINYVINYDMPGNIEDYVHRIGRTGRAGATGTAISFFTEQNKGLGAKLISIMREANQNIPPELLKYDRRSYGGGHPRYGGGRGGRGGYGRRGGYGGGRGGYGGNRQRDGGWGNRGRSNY
UniProt P06634: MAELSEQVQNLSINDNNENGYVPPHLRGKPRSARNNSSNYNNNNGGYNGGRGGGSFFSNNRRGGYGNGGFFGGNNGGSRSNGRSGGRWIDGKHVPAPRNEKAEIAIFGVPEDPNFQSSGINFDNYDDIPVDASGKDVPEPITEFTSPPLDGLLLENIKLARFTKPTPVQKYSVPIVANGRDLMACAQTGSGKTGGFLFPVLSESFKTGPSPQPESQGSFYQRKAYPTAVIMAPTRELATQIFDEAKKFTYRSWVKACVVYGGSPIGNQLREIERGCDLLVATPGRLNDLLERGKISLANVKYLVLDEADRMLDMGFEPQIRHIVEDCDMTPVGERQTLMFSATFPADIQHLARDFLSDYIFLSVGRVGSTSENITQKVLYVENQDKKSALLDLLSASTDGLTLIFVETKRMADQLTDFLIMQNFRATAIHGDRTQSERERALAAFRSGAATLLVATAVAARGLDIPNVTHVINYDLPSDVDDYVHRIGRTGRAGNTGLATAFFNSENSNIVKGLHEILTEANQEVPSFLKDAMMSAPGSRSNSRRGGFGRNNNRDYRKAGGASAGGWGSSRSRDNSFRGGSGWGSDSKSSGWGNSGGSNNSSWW
UniProt P15646: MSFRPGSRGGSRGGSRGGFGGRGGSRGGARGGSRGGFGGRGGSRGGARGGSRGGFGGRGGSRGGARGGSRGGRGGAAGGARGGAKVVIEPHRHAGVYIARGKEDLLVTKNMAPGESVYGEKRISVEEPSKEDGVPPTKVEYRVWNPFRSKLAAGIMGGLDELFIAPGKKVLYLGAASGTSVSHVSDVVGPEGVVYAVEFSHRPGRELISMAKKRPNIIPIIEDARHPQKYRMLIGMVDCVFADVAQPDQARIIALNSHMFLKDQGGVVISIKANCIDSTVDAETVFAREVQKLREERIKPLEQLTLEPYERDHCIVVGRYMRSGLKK
UniProt Q12460: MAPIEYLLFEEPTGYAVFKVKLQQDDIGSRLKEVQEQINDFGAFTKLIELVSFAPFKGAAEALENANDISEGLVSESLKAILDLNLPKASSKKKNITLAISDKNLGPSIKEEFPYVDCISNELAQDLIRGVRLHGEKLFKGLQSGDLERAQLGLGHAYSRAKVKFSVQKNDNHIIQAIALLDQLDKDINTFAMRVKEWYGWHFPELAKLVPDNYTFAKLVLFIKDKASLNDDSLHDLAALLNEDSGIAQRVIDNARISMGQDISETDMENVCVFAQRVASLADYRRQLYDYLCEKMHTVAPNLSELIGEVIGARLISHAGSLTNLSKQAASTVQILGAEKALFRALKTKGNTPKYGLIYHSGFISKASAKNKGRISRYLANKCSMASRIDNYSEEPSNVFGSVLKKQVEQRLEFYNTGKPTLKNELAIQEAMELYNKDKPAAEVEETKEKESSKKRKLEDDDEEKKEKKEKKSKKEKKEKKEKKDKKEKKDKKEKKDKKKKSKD
UniProt P53131: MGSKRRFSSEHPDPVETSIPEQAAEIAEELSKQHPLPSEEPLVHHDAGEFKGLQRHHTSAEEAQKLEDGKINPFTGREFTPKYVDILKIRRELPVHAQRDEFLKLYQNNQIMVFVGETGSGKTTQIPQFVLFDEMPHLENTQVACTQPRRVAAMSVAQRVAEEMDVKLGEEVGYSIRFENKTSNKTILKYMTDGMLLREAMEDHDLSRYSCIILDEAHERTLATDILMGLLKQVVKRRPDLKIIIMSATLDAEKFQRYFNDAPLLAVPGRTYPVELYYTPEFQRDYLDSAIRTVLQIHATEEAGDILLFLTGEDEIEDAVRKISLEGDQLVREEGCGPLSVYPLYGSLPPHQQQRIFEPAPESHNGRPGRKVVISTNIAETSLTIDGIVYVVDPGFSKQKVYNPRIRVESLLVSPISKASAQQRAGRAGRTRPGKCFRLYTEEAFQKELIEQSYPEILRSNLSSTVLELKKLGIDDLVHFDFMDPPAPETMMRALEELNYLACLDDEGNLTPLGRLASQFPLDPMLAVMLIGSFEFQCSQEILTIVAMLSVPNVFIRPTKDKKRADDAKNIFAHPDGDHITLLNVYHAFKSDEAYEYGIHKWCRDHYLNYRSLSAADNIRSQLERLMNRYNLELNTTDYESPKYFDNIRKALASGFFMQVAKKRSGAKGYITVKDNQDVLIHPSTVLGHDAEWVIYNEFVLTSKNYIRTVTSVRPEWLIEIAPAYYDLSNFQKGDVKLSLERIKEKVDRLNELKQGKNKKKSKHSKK
UniProt Q07794: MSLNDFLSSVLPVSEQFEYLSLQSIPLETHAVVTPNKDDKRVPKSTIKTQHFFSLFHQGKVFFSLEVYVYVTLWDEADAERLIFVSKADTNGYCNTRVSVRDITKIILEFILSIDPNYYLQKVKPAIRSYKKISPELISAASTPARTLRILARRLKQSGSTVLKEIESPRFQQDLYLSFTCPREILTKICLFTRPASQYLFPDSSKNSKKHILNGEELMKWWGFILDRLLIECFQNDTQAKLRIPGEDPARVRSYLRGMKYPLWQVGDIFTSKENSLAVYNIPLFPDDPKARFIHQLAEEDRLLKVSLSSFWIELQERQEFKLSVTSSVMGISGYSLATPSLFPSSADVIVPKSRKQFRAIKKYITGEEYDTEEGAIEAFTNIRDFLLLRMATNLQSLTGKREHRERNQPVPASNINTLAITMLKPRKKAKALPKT
UniProt P10591: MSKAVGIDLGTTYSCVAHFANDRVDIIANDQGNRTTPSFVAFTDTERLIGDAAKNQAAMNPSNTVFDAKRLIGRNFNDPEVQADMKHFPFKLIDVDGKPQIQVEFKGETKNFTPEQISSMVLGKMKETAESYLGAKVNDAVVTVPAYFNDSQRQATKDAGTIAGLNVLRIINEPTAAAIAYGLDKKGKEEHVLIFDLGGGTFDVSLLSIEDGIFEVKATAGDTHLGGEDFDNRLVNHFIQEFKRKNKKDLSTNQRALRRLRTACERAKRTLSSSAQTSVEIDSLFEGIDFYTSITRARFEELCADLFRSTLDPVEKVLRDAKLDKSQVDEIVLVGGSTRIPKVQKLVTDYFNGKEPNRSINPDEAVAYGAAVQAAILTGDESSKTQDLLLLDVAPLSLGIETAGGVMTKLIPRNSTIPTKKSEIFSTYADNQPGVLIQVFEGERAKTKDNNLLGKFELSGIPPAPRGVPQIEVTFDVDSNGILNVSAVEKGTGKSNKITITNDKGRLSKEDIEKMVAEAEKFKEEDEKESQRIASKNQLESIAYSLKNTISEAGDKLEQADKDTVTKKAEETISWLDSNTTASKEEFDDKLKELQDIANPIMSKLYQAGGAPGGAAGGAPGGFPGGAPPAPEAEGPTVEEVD
UniProt P02994: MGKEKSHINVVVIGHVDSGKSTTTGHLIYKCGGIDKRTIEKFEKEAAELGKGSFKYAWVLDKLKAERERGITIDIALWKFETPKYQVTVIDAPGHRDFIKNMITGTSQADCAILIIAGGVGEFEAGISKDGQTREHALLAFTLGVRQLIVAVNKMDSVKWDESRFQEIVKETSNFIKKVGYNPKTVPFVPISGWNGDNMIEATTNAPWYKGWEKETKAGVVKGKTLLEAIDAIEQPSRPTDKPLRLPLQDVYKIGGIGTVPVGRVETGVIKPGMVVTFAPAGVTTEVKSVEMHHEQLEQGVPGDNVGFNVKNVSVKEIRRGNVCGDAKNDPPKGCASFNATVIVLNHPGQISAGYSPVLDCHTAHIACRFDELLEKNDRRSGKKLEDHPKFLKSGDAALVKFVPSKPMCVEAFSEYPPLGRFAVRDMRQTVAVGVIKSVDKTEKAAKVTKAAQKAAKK
UniProt P42945: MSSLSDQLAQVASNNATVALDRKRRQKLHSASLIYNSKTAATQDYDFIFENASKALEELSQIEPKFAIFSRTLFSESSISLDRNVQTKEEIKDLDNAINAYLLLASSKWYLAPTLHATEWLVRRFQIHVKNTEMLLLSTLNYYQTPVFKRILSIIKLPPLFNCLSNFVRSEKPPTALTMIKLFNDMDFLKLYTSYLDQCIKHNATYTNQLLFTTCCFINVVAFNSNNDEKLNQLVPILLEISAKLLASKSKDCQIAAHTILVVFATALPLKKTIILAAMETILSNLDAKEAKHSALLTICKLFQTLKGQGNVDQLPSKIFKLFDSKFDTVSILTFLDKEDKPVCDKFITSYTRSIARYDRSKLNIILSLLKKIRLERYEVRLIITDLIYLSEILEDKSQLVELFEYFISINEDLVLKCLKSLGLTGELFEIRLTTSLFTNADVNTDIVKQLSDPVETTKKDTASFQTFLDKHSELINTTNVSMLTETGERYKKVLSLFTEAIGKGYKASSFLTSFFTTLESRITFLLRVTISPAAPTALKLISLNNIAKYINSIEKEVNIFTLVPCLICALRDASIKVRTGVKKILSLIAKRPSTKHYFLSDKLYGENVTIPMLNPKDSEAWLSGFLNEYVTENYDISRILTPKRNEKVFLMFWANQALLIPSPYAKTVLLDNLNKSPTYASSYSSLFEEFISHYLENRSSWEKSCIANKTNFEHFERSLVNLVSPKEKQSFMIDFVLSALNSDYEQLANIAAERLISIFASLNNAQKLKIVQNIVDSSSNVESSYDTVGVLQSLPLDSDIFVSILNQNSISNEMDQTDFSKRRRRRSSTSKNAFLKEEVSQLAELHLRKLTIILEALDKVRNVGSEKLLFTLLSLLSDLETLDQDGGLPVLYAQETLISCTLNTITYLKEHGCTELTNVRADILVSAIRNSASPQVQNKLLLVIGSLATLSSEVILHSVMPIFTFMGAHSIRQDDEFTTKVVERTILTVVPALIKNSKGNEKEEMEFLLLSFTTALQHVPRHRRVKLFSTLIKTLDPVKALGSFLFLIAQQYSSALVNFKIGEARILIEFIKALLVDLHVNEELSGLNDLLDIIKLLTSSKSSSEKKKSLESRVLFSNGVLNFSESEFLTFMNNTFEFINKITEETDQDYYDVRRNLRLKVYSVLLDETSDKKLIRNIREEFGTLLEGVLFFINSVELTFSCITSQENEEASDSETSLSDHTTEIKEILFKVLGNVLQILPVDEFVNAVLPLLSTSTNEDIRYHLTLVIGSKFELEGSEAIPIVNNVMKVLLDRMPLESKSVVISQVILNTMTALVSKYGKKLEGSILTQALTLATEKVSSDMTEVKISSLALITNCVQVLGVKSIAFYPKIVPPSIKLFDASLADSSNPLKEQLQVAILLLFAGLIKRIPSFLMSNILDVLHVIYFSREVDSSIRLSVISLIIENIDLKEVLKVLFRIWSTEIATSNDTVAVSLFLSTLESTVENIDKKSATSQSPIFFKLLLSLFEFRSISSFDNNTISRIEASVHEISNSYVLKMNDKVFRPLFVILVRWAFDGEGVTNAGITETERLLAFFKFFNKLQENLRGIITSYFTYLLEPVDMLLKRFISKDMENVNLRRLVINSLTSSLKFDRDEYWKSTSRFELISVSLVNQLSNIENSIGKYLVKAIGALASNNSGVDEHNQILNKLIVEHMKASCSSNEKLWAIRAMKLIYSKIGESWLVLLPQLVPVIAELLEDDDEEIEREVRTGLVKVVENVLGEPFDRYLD

The results in this text go back to paper PMC11766905.

To fix the notation:
B1: Ylr419W (protein, UniProt Q06698 1-1435)
chain: MAKKTKNNSKSSTPVNDVPTTAGKKKAKGKKGQEPEPEDDKRAKQQSNRAKVTSTASWTGKLPHTILHETCQKRKWNKVEYDMKKIGDKGFIAIAVLSFTDPKTKETLTARMNDPTYDKASGKGLVIPQETPIEARHMASTIALYRIAYNTNLHMMLPPNHRKTWYALDDFRKDNLKTDEKRINKLFDLDPFKTMVEDRKLKAQREKEQVAQNNQAQKEQVARTILSSHGGISSSGKDRQERKVASHKNSHNPSLVRFPKKVWENSIFVDLDESSRQLIETSLKEKIDWQAKKISHKNETIAENREDLKAKLLTLQFRPKHVEEAMLYKDPLSFLLFNLPEDDLPPFFHKKKGDTKNKVEITNLPLSTRMIVERLTEIGVSSDEALLALQQNDMNENEAAGFLTREILPTLNSNTNEPVSETESIECWNQELESLESIYEGCVMDAKEDSHYTLNLIEKLKIKLKVYRTKNYPASLPGIVVSTFDKNYKLPDYIKKQILTRLLHYLQEGNLIGDMLVYHIYEWLKENISKIIDNPGPLIPDSDSKGAINKRNISNGKRSINNSSSRKFTKTTISEDTLSVLREEYTKRIKSSEYKSMQLVREQLPAWKKQKVIIDIINKNEVVLITGETGSGKSTQVVQFILDFLQKEKGDFGKTKIVCTQPRRISAIGLAERVSDERCVTCGEEVGYVIRGVNKTKASTRIKFMTTGVLVRLLQNARTMLENTIVVIDEVHERSIDTDLIVTLMKNLLHRVRGMKIVLMSATVNVDLFKKFFPGLATCHIEGRTFPITDYFLEDILSDLDFKIKREKALSYDDDSVDERNNDDQYLKPRADSKFFTSGQINYDLLCQVVEYVHKRLKAANDNGSIIVFLPGVGEINKCCNLLANKSNEADFMVLPLHSALTPEDQKRVFKKYHGKRKVVVSTNIAETSITIDDCVATIDTGRAKSMFYNPKDNTTKLIESFISKAEVKQRRGRAGRVREGLSYKLFSKNLYENDMISMPIPEIKRIPLESLYLSVKAMGIKDVKAFLSTALDAPPLPALQKAERILTTIGLVDESDKSLTQLGQFISLMPVMDSKHGKLLIYGILFGCTDISVLLVSILGIGVLPFIGGFENREKIKKLLCKYESRGDLFAVLEIVRDYFKIKDSSIKRKYLRDNLLSYNKINEIKSSTAQYYSILKDVGFLPMDYKVGSISDLNRNERNFDILRAILTGAFYPHIARVQLPDVKYLSTSSGAVEKDPEAKMIKYWIRSEEYQDKLEEYKTKISQETQKVDLEDLPLPATRAFIHPSSVLFSTNSVNLEDAKLLSEVDGPISRQSKIPTVVKYPFVLFTTSQVTNKLYLRDLTPTTTLSLLLFGGAISYDIGGTIHSPGIVVDNWLPIRTWCKNGVLIKELRTQLDEAIRKKLESPDYAKKSQIDNSGADKTLKIVEKIIASEQ
B2: Ipl1 (protein, UniProt P38991 1-367)
chain: MQRNSLVNIKLNANSPSKKTTTRPNTSRINKPWRISHSPQQRNPNSKIPSPVREKLNRLPVNNKKFLDMESSKIPSPIRKATSSKMIHENKKLPKFKSLSLDDFELGKKLGKGKFGKVYCVRHRSTGYICALKVMEKEEIIKYNLQKQFRREVEIQTSLNHPNLTKSYGYFHDEKRVYLLMEYLVNGEMYKLLRLHGPFNDILASDYIYQIANALDYMHKKNIIHRDIKPENILIGFNNVIKLTDFGWSIINPPENRRKTVCGTIDYLSPEMVESREYDHTIDAWALGVLAFELLTGAPPFEEEMKDTTYKRIAALDIKMPSNISQDAQDLILKLLKYDPKDRMRLGDVKMHPWILRNKPFWENKRL
B3: Mcm4 (protein, UniProt P30665 1-933)
chain: MSQQSSSPTKEDNNSSSPVVPNPDSVPPQLSSPALFYSSSSSQGDIYGRNNSQNLSQGEGNIRAAIGSSPLNFPSSSQRQNSDVFQSQGRQGRIRSSASASGRSRYHSDLRSDRALPTSSSSLGRNGQNRVHMRRNDIHTSDLSSPRRIVDFDTRSGVNTLDTSSSSAPPSEASEPLRIIWGTNVSIQECTTNFRNFLMSFKYKFRKILDEREEFINNTTDEELYYIKQLNEMRELGTSNLNLDARNLLAYKQTEDLYHQLLNYPQEVISIMDQTIKDCMVSLIVDNNLDYDLDEIETKFYKVRPYNVGSCKGMRELNPNDIDKLINLKGLVLRSTPVIPDMKVAFFKCNVCDHTMAVEIDRGVIQEPARCERIDCNEPNSMSLIHNRCSFADKQVIKLQETPDFVPDGQTPHSISLCVYDELVDSCRAGDRIEVTGTFRSIPIRANSRQRVLKSLYKTYVDVVHVKKVSDKRLDVDTSTIEQELMQNKVDHNEVEEVRQITDQDLAKIREVAAREDLYSLLARSIAPSIYELEDVKKGILLQLFGGTNKTFTKGGRYRGDINILLCGDPSTSKSQILQYVHKITPRGVYTSGKGSSAVGLTAYITRDVDTKQLVLESGALVLSDGGVCCIDEFDKMSDSTRSVLHEVMEQQTISIAKAGIITTLNARSSILASANPIGSRYNPNLPVTENIDLPPPLLSRFDLVYLVLDKVDEKNDRELAKHLTNLYLEDKPEHISQDDVLPVEFLTMYISYAKEHIHPIITEAAKTELVRAYVGMRKMGDDSRSDEKRITATTRQLESMIRLAEAHAKMKLKNVVELEDVQEAVRLIRSAIKDYATDPKTGKIDMNLVQTGKSVIQRKLQEDLSREIMNVLKDQASDSMSFNELIKQINEHSQDRVESSDIQEALSRLQQEDKVIVLGEGVRRSVRLNNRV
B4: Utp22 (protein, UniProt P53254 1-1237)
chain: MATSVKRKASETSDQNIVKVQKKHSTQDSTTDNGSKENDHSSQAINERTVPEQENDESDTSPESNEVATNTAATRHNGKVTATESYDIHIARETAELFKSNIFKLQIDELLEQVKLKQKHVLKVEKFLHKLYDILQEIPDWEEKSLAEVDSFFKNKIVSVPFVDPKPIPQNTNYKFNYKKPDISLIGSFALKAGIYQPNGSSIDTLLTMPKELFEKKDFLNFRCLHKRSVYLAYLTHHLLILLKKDKLDSFLQLEYSYFDNDPLLPILRISCSKPTGDSLSDYNFYKTRFSINLLIGFPYKVFEPKKLLPNRNCIRIAQESKEQSLPATPLYNFSVLSSSTHENYLKYLYKTKKQTESFVEATVLGRLWLQQRGFSSNMSHSGSLGGFGTFEFTILMAALLNGGGINSNKILLHGFSSYQLFKGVIKYLATMDLCHDGHLQFHSNPENSSSSPASKYIDEGFQTPTLFDKSTKVNILTKMTVSSYQILKEYAGETLRMLNNVVQDQFSNIFLTNISRFDNLKYDLCYDVQLPLGKYNNLETSLAATFGSMERVKFITLENFLAHKITNVARYALGDRIKYIQIEMVGQKSDFPITKRKVYSNTGGNHFNFDFVRVKLIVNPSECDKLVTKGPAHSETMSTEAAVFKNFWGIKSSLRRFKDGSITHCCVWSTSSSEPIISSIVNFALQKHVSKKAQISNETIKKFHNFLPLPNLPSSAKTSVLNLSSFFNLKKSFDDLYKIIFQMKLPLSVKSILPVGSAFRYTSLCQPVPFAYSDPDFFQDVILEFETSPKWPDEITSLEKAKTAFLLKIQEELSANSSTYRSFFSRDESIPYNLEIVTLNILTPEGYGFKFRVLTERDEILYLRAIANARNELKPELEATFLKFTAKYLASVRHTRTLENISHSYQFYSPVVRLFKRWLDTHLLLGHITDELAELIAIKPFVDPAPYFIPGSLENGFLKVLKFISQWNWKDDPLILDLVKPEDDIRDTFETSIGAGSELDSKTMKKLSERLTLAQYKGIQMNFTNLRNSDPNGTHLQFFVASKNDPSGILYSSGIPLPIATRLTALAKVAVNLLQTHGLNQQTINLLFTPGLKDYDFVVDLRTPIGLKSSCGILSATEFKNITNDQAPSNFPENLNDLSEKMDPTYQLVKYLNLKYKNSLILSSRKYIGVNGGEKGDKNVITGLIKPLFKGAHKFRVNLDCNVKPVDDENVILNKEAIFHEIAAFGNDMVINFETD

This assay has as its target Fused in Sarcoma (FUS) (UniProt P35637). The assay can be described thus: affinity purification with mass spectrometry; rabbit polyclonal FUS antibody covalently attached to magnetic beads (M270 Dynabeads), incubated with lysates of W303 yeast overexpressing FUS; controls: lysate without FUS and naked beads; two independent Co-IPs, tandem MS; hits: over 40 peptide spectrum matches, at least two-fold enrichment over both controls, found in both trials.
Regarding Dbp1 (from UniProt P24784 1-617), the binding entry is “binds”.
Turning to Dbp2 (from UniProt P24783 1-546), the binding result is recorded as “binds”.
Regarding Ded1 (from UniProt P06634 1-604), the binding entry is “binds”.
As for Nop1 (from UniProt P15646 1-327), the binding result is given as “binds”.
As for Nop56 (from UniProt Q12460 1-504), the binding result is listed as “binds”.
For Prp43 (from UniProt P53131 1-767), the binding result is recorded as “binds”.
As for Rrp5 (from UniProt Q05022 1-1729), the entry is “binds”; as for Rtt109 (from UniProt Q07794 1-436), “no binding”; as for Ssa1 (from UniProt P10591 1-642), “binds”.
Consider Tef1 (from UniProt P02994 1-458), for which the binding result was “binds”.
In the case of Utp10 (from UniProt P42945 1-1769), the binding result is “binds”.
With B1, the binding entry is “binds”.
Turning to B2, the binding entry is listed as “no binding”.
In the case of B3, the binding result is “binds”.
In the case of B4, the binding entry is on record as “binds”.
